# Laboratory results reported in the supplement of paper PMC12009310.
# Counter-ions that a name gives are not always drawn. ± gives the standard deviation of the averaged measurements. This is one part of the list. Baselines shift from plate to plate; read single values as rough.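 The cells are a mouse kidney inner medullary collecting duct line, silenced either for the ciliary gene Rpgrip1l or with a non-targeting control siRNA.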
# Key:
# mIMCD3 [1] = test: robust z score of cell number vs plate controls; higher = more cells (less cytotoxic); conditions: 10 µM, 48 h
# mIMCD3 [2] = test: robust z score of cilia incidence (% cells with single cilium) vs plate controls; higher = more ciliated cells; conditions: 10 µM; 48 h; siRNA: siScr
# mIMCD3 [3] = test: robust z score of cilia incidence (% cells with single cilium) vs plate controls; higher = more ciliated cells (rescue of cilia loss); conditions: 10 µM; 48 h; siRNA: siRpgrip1l
Structure (SMILES),robust z score of cell number (mIMCD3 [1]; siRNA: siRpgrip1l),robust z score of cell number (mIMCD3 [1]; siRNA: siScr),robust z score of cilia incidence (mIMCD3 [2]),robust z score of cilia incidence (mIMCD3 [3])
CC[C@@H]1Cn2c(c3nc(-c4ccccc4)nc-3n(C)c2=O)N1,0.102 ± 1.4,-3.29 ± 6.4,2.43 ± 2.4,-9.19 ± 0.87
Cn1ccc2cc(NC(=O)Nc3cccnc3)ccc21,-35.5 ± 26,-4.09 ± 1.1,0.0545 ± 0.35,-5.87 ± 1.4
O=Nc1c(-c2c(O)[nH]c3ccccc23)[nH]c2ccccc12 [Indirubin-3'-oxime],-44.7 ± 41,-44.8 ± 29,-115 ± 60,-120 ± 110
CCOC(=O)[C@]12CC1/C(=N\O)c1ccccc1O2 (some centres not stated),-7.68 ± 4.3,0.406 ± 2.9,-0.514 ± 3.9,-17.8 ± 4.1
CCCC[P+](CCCC)(CCCC)Cc1ccc(NC(=O)C(Cc2ccc3ccccc3c2)NC(=NC2CCCCC2)NC2CCCCC2)cc1 (configuration not stated),-54.7 ± 42,-22.5 ± 5.1,-16.7 ± 9.9,-16.2 ± 14
O=C1CCC(N2C(=O)c3ccccc3C2=O)C(=O)N1 (configuration not stated) [Thalidomide],1.87 ± 4.3,-3.2 ± 1.7,1.5 ± 3.3,-8.27 ± 2.2
NC(C(=O)O)c1ccc(C(=O)O)c(C(=O)O)c1 (configuration not stated),-21.7 ± 12,-0.565 ± 0.39,0.493 ± 8,-7.51 ± 2.5
Fc1ccc(Cl)cc1-c1nc(Nc2ccncc2)c2nccnc2n1,-9.89 ± 11,-3.51 ± 1.6,-3.56 ± 7.4,-6.15 ± 4
CC[C@H](NC(=O)c1c(C)c(-c2ccccc2)nc2ccccc12)c1ccccc1,-178 ± 130,-18.2 ± 4.9,-2.81 ± 9.6,-15.5 ± 4.7
COc1ccccc1N1CCN(CC(O)COc2cccc3ccccc23)CC1 (configuration not stated) [Naftopidil hydrochloride],-11.1 ± 11,-32 ± 39,-0.533 ± 1.8,-10.3 ± 3.6
O=C(c1ccc(F)cc1)C1CCN(CCCCc2ccccc2)CC1 [4-(4-Fluorobenzoyl)-1-(4-phenylbutyl)-piperidine oxalate],-9.33 ± 7,-7.92 ± 10,-4.9 ± 2,-13 ± 8.7
COc1ccc2[nH]c(-c3ccccc3)c(CCNC(C)=O)c2c1 [2-Phenylmelatonin],-4.87 ± 2.9,-1.33 ± 2.2,-0.0153 ± 0.23,-10.9 ± 2.7
CCn1c(=O)[nH]c2cc(Cl)c(Cl)cc21,-71.7 ± 58,-8.33 ± 2.5,0.45 ± 8.8,-10.4 ± 2.3
Cc1cc2nc3c(=O)[nH]c(=O)nc-3n(C)c2cc1C=O,-18.1 ± 9,-16.6 ± 2.6,-3.54 ± 4.6,-14.7 ± 8.1
CC(C)C(=O)c1c(C(C)C)nn2ccccc12 [Ibudilast],-10.1 ± 6.2,-8.52 ± 6.7,-8.21 ± 5.6,-12.6 ± 5.2
COc1ccc(CCCOC(Cn2ccnc2)c2ccc(OC)cc2)cc1 (configuration not stated),-51.1 ± 40,-20.6 ± 3.1,-14.6 ± 1.6,-29.2 ± 6.2
CCO/C(O)=C1\C(C)=NC(c2ccccc2)=C(C(=O)OCc2ccc([N+](=O)[O-])cc2)C1C#Cc1ccccc1 (configuration not stated),-77.2 ± 69,-6.18 ± 0.66,-2.24 ± 4.4,-15.7 ± 0.35

# 2 entries drawn at random from the list so far:
Structure (SMILES),robust z score of cell number (mIMCD3 [1]; siRNA: siRpgrip1l),robust z score of cell number (mIMCD3 [1]; siRNA: siScr),robust z score of cilia incidence (mIMCD3 [2]),robust z score of cilia incidence (mIMCD3 [3])
O=C(c1ccc(F)cc1)C1CCN(CCCCc2ccccc2)CC1 [4-(4-Fluorobenzoyl)-1-(4-phenylbutyl)-piperidine oxalate],-9.33 ± 7,-7.92 ± 10,-4.9 ± 2,-13 ± 8.7
CC[C@@H]1Cn2c(c3nc(-c4ccccc4)nc-3n(C)c2=O)N1,0.102 ± 1.4,-3.29 ± 6.4,2.43 ± 2.4,-9.19 ± 0.87

# Going on with the list:

Structure (SMILES),robust z score of cell number (mIMCD3 [1]; siRNA: siRpgrip1l),robust z score of cell number (mIMCD3 [1]; siRNA: siScr),robust z score of cilia incidence (mIMCD3 [2]),robust z score of cilia incidence (mIMCD3 [3])
O=C(c1ccc(F)cc1)C1CCN(CCn2c(=O)[nH]c3ccccc3c2=O)CC1 [Ketanserin tartrate],1.27 ± 5.2,-6.49 ± 6,0.626 ± 6.1,-10.2 ± 6.1
CC1(C)CCC(C)(C)c2cc(C(=O)Nc3ccc(C(=O)O)cc3)ccc21,-9.84 ± 2.9,-11.3 ± 0.64,2.28 ± 0.92,-5.76 ± 0.18
CN(C)CCC1(c2ccc(Cl)cc2)Cc2ccccc2C(=O)O1 (racemic) [(±)-AC 7954 hydrochloride],-7.28 ± 3.2,-50.3 ± 59,-17.6 ± 10,-18.9 ± 3
Oc1ccc(-c2nc(-c3ccc(F)cc3)c(-c3ccncc3)[nH]2)cc1,-235 ± 160,-28.8 ± 6.5,-7.44 ± 9.6,-22.8 ± 6.5
c1cc2c3c(c1)c1c(n3CCNC2)CCCC1 [WAY 629 hydrochloride],-1.78 ± 2.6,-4.82 ± 3.3,-2.62 ± 1.7,-18.7 ± 16
Fc1ccc(C(c2ccc(F)cc2)N2CCN(C/C=C/c3ccccc3)CC2)cc1 [Flunarizine dihydrochloride],-66.4 ± 55,-90.6 ± 82,-4.41 ± 0.63,-22.7 ± 4.3
CC1CCN=C(N)S1 (configuration not stated) [AMT hydrochloride],-1.13 ± 2.8,-1.01 ± 4,-0.743 ± 1.5,-7.8 ± 0.34
CCCCCCCC/C=C\CCCCCCCC(=O)NCCO [Oleylethanolamide],-11.3 ± 14,-4.23 ± 1.1,-8.03 ± 6.4,-158 ± 95
c1ccc2nc(C3=NCCN3)cnc2c1 [BU 239 hydrochloride],-4.56 ± 2.4,-2.283 ± 0.012,2.45 ± 2.6,-6.41 ± 0.14
CCCCCCCC/C=C\CCCCCCCC(=O)N[C@@H](CO)Cc1ccc(O)cc1,-43.6 ± 40,-43.3 ± 29,-123 ± 64,-121 ± 120
O=c1c(O)c(-c2ccc(O)c(O)c2)oc2cc(O)cc(O)c12 [Quercetin],-52 ± 44,-45.2 ± 3.4,-54.1 ± 19,-36.9 ± 4
CCCN(CC1CC1)c1nc(C)nc(Nc2c(Cl)cc(Cl)cc2Cl)c1Cl,-189 ± 210,-44.3 ± 10,-23.9 ± 12,-465 ± 350
COc1cc2ncn(-c3cc(OCc4ccccc4C(F)(F)F)c(C(N)=O)s3)c2cc1OC,-25.7 ± 24,-12.2 ± 12,-15 ± 11,-17.3 ± 2
O=C1CCc2cc(OCCCCc3nnnn3C3CCCCC3)ccc2N1 [Cilostazol],-12.1 ± 11,-16.5 ± 8.6,-22.2 ± 24,-32.7 ± 12
O=C(c1ccc(F)cc1)C1CCN(CCn2c(=S)[nH]c3ccccc3c2=O)CC1 [Altanserin hydrochloride],-10 ± 2.8,-12.3 ± 3,-67 ± 55,-77 ± 58
c1ccc2sc(N3CCN(Cc4ccc5c(c4)OCO5)CC3)nc2c1 [2-[1-(4-Piperonyl)piperazinyl]benzothiazole],-2.78 ± 0.11,-2.25 ± 3.4,5.01 ± 0.51,-5.2 ± 4.9
